Binding data for seven molecules are collected here from article doi:10.1101/456418.

These are yes or no findings as the source states them, for the method shown. In cells and extracts the contact can be indirect. Here binding means that the protein was enriched with, or labelled near, the bait; the list need not be complete. For some of these results: Tags and fused reporters may be left off the sequences shown.

The target in assay [1] is T1, KPAP1 poly(A) polymerase, TAP-tagged (Trypanosoma brucei) (UniProt B3FB38).
T1 sequence: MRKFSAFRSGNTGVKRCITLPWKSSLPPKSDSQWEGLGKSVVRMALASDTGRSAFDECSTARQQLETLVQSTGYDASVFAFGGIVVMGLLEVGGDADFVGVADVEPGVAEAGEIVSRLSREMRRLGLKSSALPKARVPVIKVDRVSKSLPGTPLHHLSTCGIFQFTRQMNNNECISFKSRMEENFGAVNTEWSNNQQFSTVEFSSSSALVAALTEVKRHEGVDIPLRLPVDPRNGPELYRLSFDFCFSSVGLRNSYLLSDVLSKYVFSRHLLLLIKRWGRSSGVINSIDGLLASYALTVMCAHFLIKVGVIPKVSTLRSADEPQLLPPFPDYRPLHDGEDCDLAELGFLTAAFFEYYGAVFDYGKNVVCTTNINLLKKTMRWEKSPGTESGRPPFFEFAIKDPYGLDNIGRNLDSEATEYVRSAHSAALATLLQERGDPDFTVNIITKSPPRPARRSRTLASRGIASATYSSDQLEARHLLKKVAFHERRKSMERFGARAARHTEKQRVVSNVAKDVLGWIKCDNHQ
Nature of the assay: affinity purification with mass spectrometry.

The target of assay [2] is T2, KPAP1 fusion with BirA* biotin ligase (Trypanosoma brucei) (UniProt B3FB38).
T2 sequence: T1 sequence
Nature of the assay: proximity labelling.

For assay [3], the target named is T3, GRBC2 fusion with BirA* biotin ligase (Trypanosoma brucei) (UniProt B6SBL9).
T3 sequence: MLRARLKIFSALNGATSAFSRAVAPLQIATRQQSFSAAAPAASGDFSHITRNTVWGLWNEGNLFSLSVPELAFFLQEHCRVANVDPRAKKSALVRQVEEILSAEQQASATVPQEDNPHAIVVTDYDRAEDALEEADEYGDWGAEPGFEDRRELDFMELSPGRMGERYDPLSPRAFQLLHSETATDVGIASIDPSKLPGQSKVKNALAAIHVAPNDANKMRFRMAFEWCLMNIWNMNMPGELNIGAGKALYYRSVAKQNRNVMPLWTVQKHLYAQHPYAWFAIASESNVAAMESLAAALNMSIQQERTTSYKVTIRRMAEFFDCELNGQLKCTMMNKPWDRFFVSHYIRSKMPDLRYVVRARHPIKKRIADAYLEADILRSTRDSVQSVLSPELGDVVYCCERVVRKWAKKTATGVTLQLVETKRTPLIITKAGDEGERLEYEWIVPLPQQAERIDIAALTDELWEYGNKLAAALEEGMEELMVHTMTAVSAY
Description: proximity labelling.

The target of assay [4] is T4, MERS1 fusion with BirA* biotin ligase (Trypanosoma brucei) (UniProt B6SBM0).
T4 sequence: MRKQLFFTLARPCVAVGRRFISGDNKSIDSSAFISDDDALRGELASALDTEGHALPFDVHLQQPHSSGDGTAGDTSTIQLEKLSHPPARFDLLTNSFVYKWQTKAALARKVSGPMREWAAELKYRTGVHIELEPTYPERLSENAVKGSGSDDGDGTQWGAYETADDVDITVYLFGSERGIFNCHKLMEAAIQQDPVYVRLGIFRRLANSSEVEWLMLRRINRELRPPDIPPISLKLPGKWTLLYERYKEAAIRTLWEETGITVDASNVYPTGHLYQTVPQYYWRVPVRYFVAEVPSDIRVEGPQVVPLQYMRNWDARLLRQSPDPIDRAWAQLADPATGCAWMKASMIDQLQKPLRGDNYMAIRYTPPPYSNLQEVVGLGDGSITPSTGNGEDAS
Nature of the assay: proximity labelling.

The target in assay [5] is Kinetoplast Polyadenylation Factor 4, C-terminally TAP-tagged (Trypanosoma brucei). Nature of the assay: affinity purification with mass spectrometry.

Consider KPAF1 polyadenylation factor, for which the binding result in assay [1] was “binds”. For KPAF2 polyadenylation factor, the binding entry in assay [2] and in assay [1] was “binds” in each case. Kinetoplast Polyadenylation Factor 3: in assay [1], the binding entry is “binds”. On to MRP2 (MRP1/2 RNA chaperone), for which the binding result in assay [3], in assay [2] and in assay [4] was “binds” in each case.

Turning to “subunit P3 of the polyadenylation mediator module (PAMC)”, in assay [2], the binding result is on record as “binds”. The same measure, in the same setting: the same measure for “subunit P4 of the polyadenylation mediator module (PAMC)”: “binds”.

B1: KPAP1 poly(A) polymerase (enzyme, UniProt B3FB38 1-527)
chain: T1 sequence
B1: the binding result in assay [5] was “binds”.
